Source: US20150290193A1, “NOVEL APPROACHES FOR INDIVIDUALIZED THERAPY OF PANCREATIC DUCTAL ADENOCARCINOMA” (HI-STEM gGmbH, priority 2012, published 2015)
Entries after “also recorded” stand apart in the source; their conditions may differ. For at least one compound, name, drawing or mass did not settle the structure.

Key:
[1] = system: stable PDAC cell lines; test: In vitro drug screen, cell growth by Cell Titer Blue at a single concentration; format: cell-based, human; conditions: classical subtype PDAC cell lines; 10 μM compound; 72 h
[2] = system: stable PDAC cell lines; test: Dose-escalation IC50 determination, cell viability by CellTiterBlue; format: cell-based, human; conditions: 72 h
[3] = system: PACO tumors (transplanted human PDAC tumors); test: In vivo drug screen, subcutaneous PACO tumors in NSG mice, relative tumor volume; conditions: tumors of the classical (predicted sensitive) subtype, 25 mg/kg daily via oral gavage

**Q.** What does the source list for `Cc1nc(Nc2ncc(C(=O)Nc3c(C)cccc3Cl)s2)cc(N2CCN(CCO)CC2)n1` [Dasatinib]?
**A.** sensitivity in growth inhibition screen [1]: confirmed the predicted sensitivity; sensitivity (IC50) of exocrine-like and quasi-mesenchymal PDAC cells [2]: relatively resistant; tumor growth, Dasatinib alone [3]: delayed tumor growth significantly; also recorded: significant growth-inhibitory effect only on the tumors of the classical subtype
